Measured values as given in the supplement of paper PMC9135407.
Several values for one entry are separate records, joined by “and”; a condition that tells them apart may be missing. Equal entries are not always repeated. Structures can show the parent of a compound that is named as a salt. ± gives the standard deviation of the averaged measurements. Some of the results follow. Baselines shift from plate to plate; read single values as rough.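 Culture-activated primary human stellate myofibroblasts, where regained lipid droplets signal inactivation. Value: share of Hoechst-counted cells above a per-plate Bodipy cutoff, in duplicate wells, with DMSO negative and nortriptyline positive controls on each plate. Hits: a control-normalized score above the plate's top-tenth-percentile nortriptyline wells, or one of a plate's three best wells. Final well concentrations are not given.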

Tested on: primary human hepatic stellate cells (donor 1)
Assay: percent Bodipy-positive cells; higher = more lipid droplet accumulation
Settings: 48 h
[1] = library stock concentration: 10 mM
[2] = library stock concentration: 1 mM

## C/C=C(/C)C(=O)O[C@H]1C(C)=C2[C@H]([C@@H]1OC(=O)CCCCCCC)[C@@](C)(OC(C)=O)C[C@H](OC(=O)CCC)[C@@]1(O)[C@H]2OC(=O)[C@@]1(C)O [Thapsigargin]
Library stock concentration: 7.7 mM
  percent Bodipy-positive cells: 89.2 ± 5.5%
[1]
  percent Bodipy-positive cells: 88.1 ± 17%

## Cc1nnc2n1-c1sc(CCC(=O)N3CCOCC3)cc1C(c1ccccc1Cl)=NC2
[1]
  percent Bodipy-positive cells: 6.86 ± 1.8%

## C[C@@H]1O[C@@H](O[C@H]2C[C@@H](O)[C@]3(CO)[C@H]4[C@H](O)C[C@]5(C)[C@@H](C6=CC(=O)OC6)CC[C@]5(O)[C@@H]4CC[C@]3(O)C2)[C@H](O)[C@H](O)[C@H]1O.O.O.O.O.O.O.O.O [Strophantine octahydrate]
  percent Bodipy-positive cells: 92 ± 0.37%

## C[C@]12CC[C@@H](O)C[C@@H]1CC[C@@H]1[C@@H]2CC[C@]2(C)[C@@H](C(=O)CO)CC[C@@H]12 [3-alpha,21-Dihydroxy-5-alpha-pregnan-20-one]
[1]
  percent Bodipy-positive cells: 25.6 ± 7.6%

## CC1=C2C(=CO[C@H](C)[C@H]2C)C(O)=C(C(=O)O)C1=O [Citrinin]
[1]
  percent Bodipy-positive cells: 34.1 ± 6.4%

## CCC[C@@H]1CC2=CC(=O)CC[C@]2(C)[C@H]2CC[C@@]3(C)[C@@H](CC[C@@]3(O)CCC(=O)O)[C@H]12
[1]
  percent Bodipy-positive cells: 5.44 ± 0.77%

## C=C1C/C(=C/C)C(=O)O[C@@H]2CCN3CC=C(COC(=O)[C@]1(C)O)[C@H]23 [Seneciphylline]
  percent Bodipy-positive cells: 29.3 ± 2.6%

## c1ccc2c(c1)OCC(C1=NCCN1)O2 (stereo unspecified) [Idazoxan hydrochloride]
  percent Bodipy-positive cells: 15.8 ± 1.6%

## c1ccc(C2CNCc3ccccc32)cc1 (stereo unspecified) [4-Phenyl-1,2,3,4-tetrahydroisoquinoline hydrochloride]
[1]
  percent Bodipy-positive cells: 26.4 ± 7.5%

## CCCCCC[C@H]1C(=O)O[C@H](C)[C@H](NC(=O)c2cccc(NC=O)c2O)C(=O)O[C@@H](C)[C@@H]1OC(=O)CC(C)C [Antimycin A]
  percent Bodipy-positive cells: 43.8 ± 3.8%

## COc1ccc2c(c1)[nH]c1c(C)nccc12.Cl [Harmine hydrochloride]
  percent Bodipy-positive cells: 87.3 ± 5.2%

## NC(C(=O)O)c1nn[nH]n1 (racemic) [(RS)-(Tetrazol-5-yl)glycine]
[1]
  percent Bodipy-positive cells: 9.53 ± 3.8%

## CCCN(CCC)[C@H]1CCc2c(F)ccc(O)c2C1 [S(-)-UH-301 hydrochloride]
[1]
  percent Bodipy-positive cells: 50 ± 6%

## CCCCC/C=C\C/C=C\C/C=C\C/C=C\CCCC(N)=O [Arachidonoyl amide]
[2]
  percent Bodipy-positive cells: 14 ± 9%

## CCCCC/C=C\C/C=C\C/C=C\C/C=C\CCCC(N)=O [Arachidonamide]
[2]
  percent Bodipy-positive cells: 13 ± 11%

## CCCCCCCCCOc1ccc2[nH]cc(CCN)c2c1 [5-Nonyloxytryptamine]
Library stock concentration: 9.9 mM
  percent Bodipy-positive cells: 91.6 ± 6.1%

## CCCN1CCC[C@@H]2Cc3n[nH]cc3C[C@H]21 [(?)-Quinpirole dihydrochloride]
[1]
  percent Bodipy-positive cells: 22 ± 4.4%

## CCCN1CCC[C@@H]2Cc3n[nH]cc3C[C@H]21 [(-)-Quinpirole hydrochloride]
  percent Bodipy-positive cells: 7.38 ± 1.5%
[1]
  percent Bodipy-positive cells: 13.8% and 8.76%

## CCCN1CCC[C@@H]2Cc3n[nH]cc3C[C@H]21 [Quinpirole HCl (-)-]
Library stock concentration: 9.1 mM
  percent Bodipy-positive cells: 11.1 ± 3.2%
